Data reported in article PMC8789930.
No constants are given. Whether binding was seen depends on the method and setting. Binding seen in cells or lysates may run through a third protein. Some results given as binding are weak or reduced against the parent protein; the word gives no strength. For some assays here: Sequences can lack the tags named with a protein.

Amino acid sequences for entries named in this document (tags omitted).
UniProt Q14258: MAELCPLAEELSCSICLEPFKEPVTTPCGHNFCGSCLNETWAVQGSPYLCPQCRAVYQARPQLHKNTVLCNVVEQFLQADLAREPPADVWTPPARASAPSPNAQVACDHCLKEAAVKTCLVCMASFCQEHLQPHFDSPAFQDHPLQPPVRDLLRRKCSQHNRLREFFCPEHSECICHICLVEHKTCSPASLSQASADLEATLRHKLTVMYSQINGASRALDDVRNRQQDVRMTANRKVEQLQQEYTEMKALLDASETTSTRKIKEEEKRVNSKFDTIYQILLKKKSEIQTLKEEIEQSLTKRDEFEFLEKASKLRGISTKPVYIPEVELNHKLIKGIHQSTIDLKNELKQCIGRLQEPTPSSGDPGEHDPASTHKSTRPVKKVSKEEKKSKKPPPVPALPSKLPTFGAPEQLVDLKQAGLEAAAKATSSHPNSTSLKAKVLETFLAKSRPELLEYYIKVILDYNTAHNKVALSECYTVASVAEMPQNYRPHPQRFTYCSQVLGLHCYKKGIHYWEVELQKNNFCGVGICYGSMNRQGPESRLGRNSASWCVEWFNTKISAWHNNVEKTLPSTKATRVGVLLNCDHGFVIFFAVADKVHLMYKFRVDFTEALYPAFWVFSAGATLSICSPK
UniProt P13010: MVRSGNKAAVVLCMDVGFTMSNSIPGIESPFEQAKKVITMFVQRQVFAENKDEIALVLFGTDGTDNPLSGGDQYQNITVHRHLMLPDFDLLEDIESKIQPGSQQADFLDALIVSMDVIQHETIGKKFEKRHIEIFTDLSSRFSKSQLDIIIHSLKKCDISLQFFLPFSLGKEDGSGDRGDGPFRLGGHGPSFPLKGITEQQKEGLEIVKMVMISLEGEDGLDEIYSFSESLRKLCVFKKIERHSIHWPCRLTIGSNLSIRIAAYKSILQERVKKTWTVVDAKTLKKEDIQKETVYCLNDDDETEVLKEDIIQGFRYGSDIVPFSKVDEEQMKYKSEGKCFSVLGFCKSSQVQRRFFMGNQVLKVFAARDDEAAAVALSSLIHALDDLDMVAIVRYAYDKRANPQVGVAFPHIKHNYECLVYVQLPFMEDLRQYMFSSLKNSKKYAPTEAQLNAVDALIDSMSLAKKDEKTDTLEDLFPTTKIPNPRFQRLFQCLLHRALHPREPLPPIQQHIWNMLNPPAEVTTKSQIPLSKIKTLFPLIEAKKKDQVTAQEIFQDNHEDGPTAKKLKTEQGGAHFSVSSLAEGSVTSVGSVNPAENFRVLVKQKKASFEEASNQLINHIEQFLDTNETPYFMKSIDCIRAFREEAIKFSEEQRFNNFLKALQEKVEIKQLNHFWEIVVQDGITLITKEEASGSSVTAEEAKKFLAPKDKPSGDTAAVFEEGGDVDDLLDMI

Key:
HA-USP44 = biological target: T1, HA-USP44 (UniProt Q9H0E7); test: co-IP; exogenous (transfected, tagged) proteins in SUNE1 / NPC cells; lysate immunoprecipitated overnight at 4 °C with 3 μg antibody (anti-HA or anti-FLAG for USP44 and Ku80), Protein A/G magnetic beads, western blot
T1 sequence: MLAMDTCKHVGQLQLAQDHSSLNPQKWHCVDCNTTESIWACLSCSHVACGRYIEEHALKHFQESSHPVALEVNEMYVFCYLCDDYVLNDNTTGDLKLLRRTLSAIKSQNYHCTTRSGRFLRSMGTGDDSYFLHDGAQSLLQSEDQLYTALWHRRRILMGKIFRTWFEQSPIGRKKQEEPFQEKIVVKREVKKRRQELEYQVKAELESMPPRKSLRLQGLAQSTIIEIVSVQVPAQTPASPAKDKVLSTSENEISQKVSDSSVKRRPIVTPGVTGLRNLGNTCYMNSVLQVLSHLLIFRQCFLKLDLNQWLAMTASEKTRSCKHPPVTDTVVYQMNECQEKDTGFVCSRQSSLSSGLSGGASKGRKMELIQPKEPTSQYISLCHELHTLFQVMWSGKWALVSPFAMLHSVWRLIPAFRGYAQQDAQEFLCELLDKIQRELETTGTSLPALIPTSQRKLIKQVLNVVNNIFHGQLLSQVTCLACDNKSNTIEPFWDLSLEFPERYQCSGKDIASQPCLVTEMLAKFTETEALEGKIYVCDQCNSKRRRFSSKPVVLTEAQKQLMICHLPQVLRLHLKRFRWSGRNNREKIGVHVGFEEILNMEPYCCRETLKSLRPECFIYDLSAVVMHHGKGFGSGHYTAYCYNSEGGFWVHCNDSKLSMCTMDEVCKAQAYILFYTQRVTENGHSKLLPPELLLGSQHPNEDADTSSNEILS

[1] = biological target: TRIM25 (exogenous, MYC- or FLAG-tagged) (UniProt Q14258); test: as above
[2] = biological target: TRIM25 (endogenous) (human (endogenous in SUNE1 and other NPC cells)) (UniProt Q14258); test: co-IP; endogenous proteins in NPC cells; lysate immunoprecipitated overnight at 4 °C with 3 μg antibody, Protein A/G magnetic beads, western blot
[3] = biological target: T2, USP44 (endogenous) (human (endogenous in NPC cells)) (UniProt Q9H0E7); test: as above
T2 sequence: T1 sequence

FLAG-Ku80 (from UniProt P13010 1-732)
binding (HA-USP44): binds
binding [1]: binds

Ku80 (endogenous) (from UniProt P13010 1-732)
binding [2]: binds

TRIM25 (endogenous) (from UniProt Q14258 1-630)
binding [3]: binds

TRIM25 (exogenous, MYC- or FLAG-tagged) (from UniProt Q14258 1-630)
binding (HA-USP44): binds
